Results are given in words; binding and its absence hold for the method and conditions named.

The target in this assay is CERT START domain alone (aa 389-618) (human) (UniProt Q9Y5P4). Briefly: SEC-MALS; size-exclusion chromatography coupled to multiangle light scattering of recombinant CERT constructs; absolute molar mass; both purified. A general note: In gel filtration, larger molecules generally elute earlier.

B1: CERT START domain alone (aa 389-618) (domain or fragment, UniProt Q9Y5P4-1 389-618)
chain: DVHRFSSQVEEMVQNHMTYSLQDVGGDANWQLVVEEGEMKVYRREVEENGIVLDPLKATHAVKGVTGHEVCNYFWNVDVRNDWETTIENFHVVETLADNAIIIYQTHKRVWPASQRDVLYLSVIRKIPALTENDPETWIVCNFSVDHDSAPLNNRCVRAKINVAMICQTLVSPPEGNQEISRDNILCKITYVANVNPGGWAPASVLRAVAKREYPKFLKRFTSYVQEKTA
As for B1, the binding entry was “no binding”.
